# Data: the supplement of paper PMC8728848
# Some of the results follow.
# B1: CREG (Mus musculus), O88668 (protein)
# chain: MAARAPELARSLLAALLAPALVALLVSPASGRGGRDHGDWDVDRRLPPLPPREDGPRVARFVTHVSDWGSLATISTIKEVRGWPFADIISISDGPPGEGTGEPYMYLSPLQQAVSDLQENPEATLTMSLAQTVYCRNHGFDPQSPLCVHIMMSGTVTKVNKTEEDYARDSLFVRHPEMKHWPSSHNWFFAKLKISRIWVLDYFGGPKVVTPEEYFNVTLQ
# Tests used:
# Assay in all cases: glycan array binding signal (z-score within array); higher = stronger binding
# Details in all cases: glycan notation: IUPAC condensed, linker removed
# [1] = target: Gal(b1-3)GalNAc(a1-3)[Fuc(a1-2)]Gal(b1-4)GlcNAc
# Method in brief: (§1)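 Glycan array data came from 3228 arrays in the Consortium for Functional Glycomics database, and only arrays with an available protein sequence were kept. Glycan names were put into IUPAC-condensed notation, and columns mapping to the same glycan were averaged. The binding signal is a within-array Z-score, averaged across arrays of one protein sequence run at different concentrations or buffers and across linkers. A negative Z-score can be read as non-binding.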
# [2] = target: Gal(b1-3)GalNAc(b1-3)Gal(a1-4)Gal(b1-4)Glc
# Method in brief: as §1
# [3] = target: Gal(b1-3)GalNAc(b1-4)Gal(b1-4)Glc
# Method in brief: as §1
# [4] = target: Gal(b1-3)GalNAc(b1-4)[Neu5Ac(a2-3)]Gal(b1-4)Glc
# Method in brief: as §1
# Gal(b1-3)GlcNAc = target: Gal(b1-3)GlcNAc
# Method in brief: as §1
# [5] = target: Gal(b1-3)GlcNAc(a1-6)Gal(b1-4)GlcNAc
# Method in brief: as §1
# [6] = target: Gal(b1-3)GlcNAc(b1-2)Man(a1-3)[Gal(b1-3)GlcNAc(b1-2)Man(a1-6)]Man(b1-4)GlcNAc(b1-4)GlcNAc
# Method in brief: as §1
# [7] = target: Gal(b1-3)GlcNAc(b1-2)Man(a1-3)[Gal(b1-3)GlcNAc(b1-2)Man(a1-6)]Man(b1-4)GlcNAc(b1-4)[Fuc(a1-6)]GlcNAc
# Method in brief: as §1
# [8] = target: Gal(b1-3)GlcNAc(b1-3)Gal(b1-3)GlcNAc
# Method in brief: as §1
# [9] = target: Gal(b1-3)GlcNAc(b1-3)Gal(b1-4)Glc
# Method in brief: as §1
# [10] = target: Gal(b1-3)GlcNAc(b1-3)Gal(b1-4)GlcNAc
# Method in brief: as §1
# [11] = target: Gal(b1-3)GlcNAc(b1-3)Gal(b1-4)GlcNAc(b1-6)[Gal(b1-3)GlcNAc(b1-3)]Gal(b1-4)Glc
# Method in brief: as §1
# [12] = target: Gal(b1-3)GlcNAc(b1-3)Gal(b1-4)[Fuc(a1-3)]GlcNAc(b1-6)[Gal(b1-3)GlcNAc(b1-3)]Gal(b1-4)Glc
# Method in brief: as §1
# [13] = target: Gal(b1-3)GlcNAc(b1-3)GalNAc
# Method in brief: as §1
# [14] = target: Gal(b1-3)GlcNAc(b1-6)Gal(b1-4)GlcNAc
# Method in brief: as §1
# [15] = target: Gal(b1-3)[Fuc(a1-4)]GlcNAc
# Method in brief: as §1
# [16] = target: Gal(b1-3)[Fuc(a1-4)]GlcNAc(b1-2)Man(a1-3)[Gal(b1-3)[Fuc(a1-4)]GlcNAc(b1-2)Man(a1-6)]Man(b1-4)GlcNAc(b1-4)GlcNAc
# Method in brief: as §1
# [17] = target: Gal(b1-3)[Fuc(a1-4)]GlcNAc(b1-2)Man(a1-3)[Gal(b1-3)[Fuc(a1-4)]GlcNAc(b1-2)Man(a1-6)]Man(b1-4)GlcNAc(b1-4)[Fuc(a1-6)]GlcNAc
# Method in brief: as §1
# [18] = target: Gal(b1-3)[Fuc(a1-4)]GlcNAc(b1-3)Gal(b1-3)[Fuc(a1-4)]GlcNAc
# Method in brief: as §1
# [19] = target: Gal(b1-3)[Fuc(a1-4)]GlcNAc(b1-3)Gal(b1-4)GlcNAc
# Method in brief: as §1
# [20] = target: Gal(b1-3)[Fuc(a1-4)]GlcNAc(b1-3)Gal(b1-4)[Fuc(a1-3)]GlcNAc
# Method in brief: as §1
# [21] = target: Gal(b1-3)[GlcNAc(b1-6)]GalNAc
# Method in brief: as §1
# [22] = target: Gal(b1-3)[Neu5Ac(a2-6)]GalNAc
# Method in brief: as §1
# [23] = target: Gal(b1-3)[Neu5Ac(a2-6)]GlcNAc(b1-6)Gal(b1-4)Glc
# Method in brief: as §1
# [24] = target: Gal(b1-3)[Neu5Ac(b2-6)]GalNAc
# Method in brief: as §1
# [25] = target: Gal(b1-4)GalNAc(a1-3)[Fuc(a1-2)]Gal(b1-4)GlcNAc
# Method in brief: as §1
# [26] = target: Gal(b1-4)GalNAc(b1-3)[Fuc(a1-2)]Gal(b1-4)GlcNAc
# Method in brief: as §1
# Gal(b1-4)Glc = target: Gal(b1-4)Glc
# Method in brief: as §1
# Gal(b1-4)Glc6S = target: Gal(b1-4)Glc6S
# Method in brief: as §1
# Gal(b1-4)GlcNAc = target: Gal(b1-4)GlcNAc
# Method in brief: as §1
# [27] = target: Gal(b1-4)GlcNAc(a1-6)Gal(b1-4)GlcNAc
# Method in brief: as §1
# [28] = target: Gal(b1-4)GlcNAc(b1-2)Man(a1-3)Man(b1-4)GlcNAc(b1-4)GlcNAc
# Method in brief: as §1
# [29] = target: Gal(b1-4)GlcNAc(b1-2)Man(a1-3)[Gal(b1-4)GlcNAc(b1-2)Man(a1-6)]Man(b1-4)GlcNAc(b1-4)GlcNAc
# Method in brief: as §1
# [30] = target: Gal(b1-4)GlcNAc(b1-2)Man(a1-3)[Gal(b1-4)GlcNAc(b1-2)Man(a1-6)]Man(b1-4)GlcNAc(b1-4)[Fuc(a1-6)]GlcNAc
# Method in brief: as §1
# [31] = target: Gal(b1-4)GlcNAc(b1-2)Man(a1-3)[GlcNAc(b1-2)Man(a1-6)]Man(b1-4)GlcNAc(b1-4)GlcNAc
# Method in brief: as §1
# [32] = target: Gal(b1-4)GlcNAc(b1-2)Man(a1-3)[Man(a1-6)]Man(b1-4)GlcNAc(b1-4)GlcNAc
# Method in brief: as §1
# [33] = target: Gal(b1-4)GlcNAc(b1-2)Man(a1-6)Man(b1-4)GlcNAc(b1-4)GlcNAc
# Method in brief: as §1
# [34] = target: Gal(b1-4)GlcNAc(b1-2)Man(a1-6)[GlcNAc(b1-2)Man(a1-3)]Man(b1-4)GlcNAc(b1-4)GlcNAc
# Method in brief: as §1
# [35] = target: Gal(b1-4)GlcNAc(b1-2)Man(a1-6)[Man(a1-3)]Man(b1-4)GlcNAc(b1-4)GlcNAc
# Method in brief: as §1
# [36] = target: Gal(b1-4)GlcNAc(b1-2)[Gal(b1-4)GlcNAc(b1-4)]Man(a1-3)[Gal(b1-4)GlcNAc(b1-2)Man(a1-6)]Man(b1-4)GlcNAc(b1-4)GlcNAc
# Method in brief: as §1
# [37] = target: Gal(b1-4)GlcNAc(b1-2)[Gal(b1-4)GlcNAc(b1-4)]Man(a1-3)[Gal(b1-4)GlcNAc(b1-2)[Gal(b1-4)GlcNAc(b1-6)]Man(a1-6)]Man(b1-4)GlcNAc(b1-4)GlcNAc
# Method in brief: as §1
# [38] = target: Gal(b1-4)GlcNAc(b1-3)Gal(b1-3)GlcNAc
# Method in brief: as §1
# [39] = target: Gal(b1-4)GlcNAc(b1-3)Gal(b1-4)Glc
# Method in brief: as §1
# [40] = target: Gal(b1-4)GlcNAc(b1-3)Gal(b1-4)GlcNAc
# Method in brief: as §1
# [41] = target: Gal(b1-4)GlcNAc(b1-3)Gal(b1-4)GlcNAc(b1-3)Gal(b1-4)GlcNAc
# Method in brief: as §1
binder,measurement,setting,value
B1,glycan array binding signal (z-score),[1],0.423
same,glycan array binding signal (z-score),[2],-0.348
same,glycan array binding signal (z-score),[3],0.579
same,glycan array binding signal (z-score),[4],-0.237
same,glycan array binding signal (z-score),Gal(b1-3)GlcNAc,0.335
same,glycan array binding signal (z-score),[5],-0.399
same,glycan array binding signal (z-score),[6],-0.621
same,glycan array binding signal (z-score),[7],-0.604
same,glycan array binding signal (z-score),[8],-0.128
same,glycan array binding signal (z-score),[9],0.108
same,glycan array binding signal (z-score),[10],-0.113
same,glycan array binding signal (z-score),[11],0.701
same,glycan array binding signal (z-score),[12],-0.04
same,glycan array binding signal (z-score),[13],0.964
same,glycan array binding signal (z-score),[14],0.63
same,glycan array binding signal (z-score),[15],0.01
same,glycan array binding signal (z-score),[16],6.79
same,glycan array binding signal (z-score),[17],1.15
same,glycan array binding signal (z-score),[18],-0.353
same,glycan array binding signal (z-score),[19],0.78
same,glycan array binding signal (z-score),[20],-1.05
same,glycan array binding signal (z-score),[21],-0.993
same,glycan array binding signal (z-score),[22],-0.832
same,glycan array binding signal (z-score),[23],-0.76
same,glycan array binding signal (z-score),[24],-0.2
same,glycan array binding signal (z-score),[25],0.494
same,glycan array binding signal (z-score),[26],-0.296
same,glycan array binding signal (z-score),Gal(b1-4)Glc,-0.925
same,glycan array binding signal (z-score),Gal(b1-4)Glc6S,-0.13
same,glycan array binding signal (z-score),Gal(b1-4)GlcNAc,-0.275
same,glycan array binding signal (z-score),[27],-1.31
same,glycan array binding signal (z-score),[28],-0.442
same,glycan array binding signal (z-score),[29],-0.345
same,glycan array binding signal (z-score),[30],-0.152
same,glycan array binding signal (z-score),[31],-0.966
same,glycan array binding signal (z-score),[32],-0.344
same,glycan array binding signal (z-score),[33],0.102
same,glycan array binding signal (z-score),[34],-0.462
same,glycan array binding signal (z-score),[35],0.159
same,glycan array binding signal (z-score),[36],0.311
same,glycan array binding signal (z-score),[37],-1.07
same,glycan array binding signal (z-score),[38],-1.13
same,glycan array binding signal (z-score),[39],0.23
same,glycan array binding signal (z-score),[40],-0.941
same,glycan array binding signal (z-score),[41],-0.96

# As a short view, some entries already given.
binder,measurement,setting,value
B1,glycan array binding signal (z-score),[13],0.964
same,glycan array binding signal (z-score),[14],0.63
same,glycan array binding signal (z-score),[15],0.01
